The list shows a part of the results. Most entries show no effect beyond the scatter of the controls.

Protein sequences, listed by entry. Tags and fused reporters are not part of them. Lines headed by an entry give the natural chain unless they say otherwise; changes in a name come on top.
UniProt P14211: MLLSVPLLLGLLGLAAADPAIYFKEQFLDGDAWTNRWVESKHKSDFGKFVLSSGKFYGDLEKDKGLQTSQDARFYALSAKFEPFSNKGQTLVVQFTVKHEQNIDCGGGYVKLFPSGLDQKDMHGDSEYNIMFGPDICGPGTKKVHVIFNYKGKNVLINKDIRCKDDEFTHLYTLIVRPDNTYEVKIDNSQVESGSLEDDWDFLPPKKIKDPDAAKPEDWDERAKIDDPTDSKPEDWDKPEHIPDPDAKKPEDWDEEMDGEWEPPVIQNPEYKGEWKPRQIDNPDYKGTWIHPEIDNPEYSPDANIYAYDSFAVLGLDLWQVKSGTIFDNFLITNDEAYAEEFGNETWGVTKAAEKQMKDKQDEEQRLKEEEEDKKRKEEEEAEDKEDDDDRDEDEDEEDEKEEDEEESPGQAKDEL
UniProt P03893: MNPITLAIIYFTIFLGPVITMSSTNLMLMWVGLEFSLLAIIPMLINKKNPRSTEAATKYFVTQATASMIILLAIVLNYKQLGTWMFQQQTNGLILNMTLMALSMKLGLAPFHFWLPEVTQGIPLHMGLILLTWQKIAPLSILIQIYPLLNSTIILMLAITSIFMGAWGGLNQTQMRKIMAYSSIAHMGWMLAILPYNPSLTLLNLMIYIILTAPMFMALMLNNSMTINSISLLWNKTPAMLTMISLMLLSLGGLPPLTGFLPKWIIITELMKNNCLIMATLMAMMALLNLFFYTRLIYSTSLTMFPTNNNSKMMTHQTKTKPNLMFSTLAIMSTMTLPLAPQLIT
UniProt P05201: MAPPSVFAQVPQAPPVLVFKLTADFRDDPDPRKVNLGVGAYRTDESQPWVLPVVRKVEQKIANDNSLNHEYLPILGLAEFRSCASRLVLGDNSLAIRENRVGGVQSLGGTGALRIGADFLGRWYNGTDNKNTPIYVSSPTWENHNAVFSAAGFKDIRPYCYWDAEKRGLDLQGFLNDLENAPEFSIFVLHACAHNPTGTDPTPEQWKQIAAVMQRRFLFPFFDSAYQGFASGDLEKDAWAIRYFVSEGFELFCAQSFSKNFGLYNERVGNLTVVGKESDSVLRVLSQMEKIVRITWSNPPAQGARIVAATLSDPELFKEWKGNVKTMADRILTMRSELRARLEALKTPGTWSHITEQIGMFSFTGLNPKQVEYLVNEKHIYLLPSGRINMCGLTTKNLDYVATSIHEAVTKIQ
UniProt O88947, whole entry: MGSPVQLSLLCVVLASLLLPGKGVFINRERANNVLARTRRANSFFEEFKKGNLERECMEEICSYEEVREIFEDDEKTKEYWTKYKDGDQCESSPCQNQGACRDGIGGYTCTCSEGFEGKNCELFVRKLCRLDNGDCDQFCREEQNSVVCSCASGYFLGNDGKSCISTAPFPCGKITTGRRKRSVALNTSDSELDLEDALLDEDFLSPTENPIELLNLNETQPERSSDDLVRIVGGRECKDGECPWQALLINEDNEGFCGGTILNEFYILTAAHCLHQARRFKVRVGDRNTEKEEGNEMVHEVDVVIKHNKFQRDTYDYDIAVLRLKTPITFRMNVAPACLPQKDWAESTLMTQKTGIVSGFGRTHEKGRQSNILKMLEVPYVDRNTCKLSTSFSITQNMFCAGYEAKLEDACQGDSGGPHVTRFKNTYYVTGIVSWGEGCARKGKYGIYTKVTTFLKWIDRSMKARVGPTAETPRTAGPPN
UniProt P08730: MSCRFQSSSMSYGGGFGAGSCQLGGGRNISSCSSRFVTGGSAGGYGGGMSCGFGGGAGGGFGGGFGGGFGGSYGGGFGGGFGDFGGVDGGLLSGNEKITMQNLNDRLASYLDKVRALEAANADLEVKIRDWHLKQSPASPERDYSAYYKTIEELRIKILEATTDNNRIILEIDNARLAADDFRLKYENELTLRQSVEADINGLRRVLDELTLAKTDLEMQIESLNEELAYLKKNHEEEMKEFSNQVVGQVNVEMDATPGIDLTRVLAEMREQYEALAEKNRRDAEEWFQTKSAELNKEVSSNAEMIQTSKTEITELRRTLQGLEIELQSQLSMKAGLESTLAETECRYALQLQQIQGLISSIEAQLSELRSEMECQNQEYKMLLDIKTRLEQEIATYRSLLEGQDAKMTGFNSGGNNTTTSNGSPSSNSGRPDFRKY
UniProt P15306, whole entry: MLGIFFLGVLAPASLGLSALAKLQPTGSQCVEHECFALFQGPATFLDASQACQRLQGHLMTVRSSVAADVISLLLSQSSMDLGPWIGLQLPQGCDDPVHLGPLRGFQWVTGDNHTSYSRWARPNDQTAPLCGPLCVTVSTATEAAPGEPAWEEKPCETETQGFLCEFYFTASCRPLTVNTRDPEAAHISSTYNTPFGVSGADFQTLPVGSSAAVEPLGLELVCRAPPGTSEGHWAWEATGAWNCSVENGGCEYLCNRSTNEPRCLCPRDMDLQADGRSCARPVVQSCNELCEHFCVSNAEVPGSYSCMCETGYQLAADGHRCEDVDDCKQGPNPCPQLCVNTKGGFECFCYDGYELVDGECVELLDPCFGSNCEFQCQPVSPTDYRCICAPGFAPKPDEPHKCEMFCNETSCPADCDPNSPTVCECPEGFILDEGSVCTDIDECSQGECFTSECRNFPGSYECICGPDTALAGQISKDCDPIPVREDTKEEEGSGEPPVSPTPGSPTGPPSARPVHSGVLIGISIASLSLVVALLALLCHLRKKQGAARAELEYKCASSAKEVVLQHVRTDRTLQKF
UniProt P03975: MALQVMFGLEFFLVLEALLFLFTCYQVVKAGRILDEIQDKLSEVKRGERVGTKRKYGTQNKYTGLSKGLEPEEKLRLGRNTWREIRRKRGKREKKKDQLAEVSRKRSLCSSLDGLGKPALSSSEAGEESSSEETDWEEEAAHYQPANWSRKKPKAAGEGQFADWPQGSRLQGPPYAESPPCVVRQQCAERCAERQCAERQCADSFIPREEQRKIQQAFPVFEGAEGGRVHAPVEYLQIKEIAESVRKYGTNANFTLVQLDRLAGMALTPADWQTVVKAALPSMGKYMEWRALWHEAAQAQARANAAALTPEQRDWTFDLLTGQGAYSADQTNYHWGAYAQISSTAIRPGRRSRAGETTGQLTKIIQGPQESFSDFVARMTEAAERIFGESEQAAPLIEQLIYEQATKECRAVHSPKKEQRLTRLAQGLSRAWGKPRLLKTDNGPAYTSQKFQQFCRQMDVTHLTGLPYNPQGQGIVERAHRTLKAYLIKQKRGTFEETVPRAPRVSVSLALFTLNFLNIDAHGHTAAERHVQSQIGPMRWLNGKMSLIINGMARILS
UniProt P06795, whole entry, looked up: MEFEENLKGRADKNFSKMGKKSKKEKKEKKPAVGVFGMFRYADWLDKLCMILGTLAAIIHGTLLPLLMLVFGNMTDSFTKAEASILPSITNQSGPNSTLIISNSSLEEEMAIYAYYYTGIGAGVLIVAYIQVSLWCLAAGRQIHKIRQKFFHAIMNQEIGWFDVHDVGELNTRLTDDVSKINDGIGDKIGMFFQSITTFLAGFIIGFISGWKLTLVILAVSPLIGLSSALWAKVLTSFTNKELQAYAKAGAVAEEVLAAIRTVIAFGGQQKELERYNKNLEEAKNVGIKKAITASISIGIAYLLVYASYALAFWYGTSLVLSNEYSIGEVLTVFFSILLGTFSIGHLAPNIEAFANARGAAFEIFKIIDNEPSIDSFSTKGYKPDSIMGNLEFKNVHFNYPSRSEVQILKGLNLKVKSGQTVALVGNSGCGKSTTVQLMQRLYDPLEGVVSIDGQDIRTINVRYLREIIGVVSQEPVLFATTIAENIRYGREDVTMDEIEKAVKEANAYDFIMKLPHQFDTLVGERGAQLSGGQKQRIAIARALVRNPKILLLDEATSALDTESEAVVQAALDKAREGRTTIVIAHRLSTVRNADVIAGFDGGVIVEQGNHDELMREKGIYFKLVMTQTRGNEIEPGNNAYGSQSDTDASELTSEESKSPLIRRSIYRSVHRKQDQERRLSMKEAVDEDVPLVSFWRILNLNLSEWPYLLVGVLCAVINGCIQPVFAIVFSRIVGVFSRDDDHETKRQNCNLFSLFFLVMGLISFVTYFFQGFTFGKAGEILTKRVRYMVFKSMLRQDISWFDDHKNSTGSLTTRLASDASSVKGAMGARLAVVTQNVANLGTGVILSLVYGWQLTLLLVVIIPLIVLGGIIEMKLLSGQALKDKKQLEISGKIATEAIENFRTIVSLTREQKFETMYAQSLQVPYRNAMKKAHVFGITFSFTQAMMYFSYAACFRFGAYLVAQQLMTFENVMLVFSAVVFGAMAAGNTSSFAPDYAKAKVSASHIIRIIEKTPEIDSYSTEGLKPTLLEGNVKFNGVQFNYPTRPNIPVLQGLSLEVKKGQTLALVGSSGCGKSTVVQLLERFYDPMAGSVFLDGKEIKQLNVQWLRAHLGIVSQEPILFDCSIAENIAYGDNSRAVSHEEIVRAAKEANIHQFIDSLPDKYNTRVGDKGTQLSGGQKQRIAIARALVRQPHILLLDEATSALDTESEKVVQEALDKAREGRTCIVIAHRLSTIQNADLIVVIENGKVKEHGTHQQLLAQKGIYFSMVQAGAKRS
UniProt P08030: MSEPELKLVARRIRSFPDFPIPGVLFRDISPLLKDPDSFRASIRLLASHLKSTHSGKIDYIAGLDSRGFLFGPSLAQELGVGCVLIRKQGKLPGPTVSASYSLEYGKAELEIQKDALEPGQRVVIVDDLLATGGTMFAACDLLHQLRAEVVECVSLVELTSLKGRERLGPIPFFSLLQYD
UniProt P15307: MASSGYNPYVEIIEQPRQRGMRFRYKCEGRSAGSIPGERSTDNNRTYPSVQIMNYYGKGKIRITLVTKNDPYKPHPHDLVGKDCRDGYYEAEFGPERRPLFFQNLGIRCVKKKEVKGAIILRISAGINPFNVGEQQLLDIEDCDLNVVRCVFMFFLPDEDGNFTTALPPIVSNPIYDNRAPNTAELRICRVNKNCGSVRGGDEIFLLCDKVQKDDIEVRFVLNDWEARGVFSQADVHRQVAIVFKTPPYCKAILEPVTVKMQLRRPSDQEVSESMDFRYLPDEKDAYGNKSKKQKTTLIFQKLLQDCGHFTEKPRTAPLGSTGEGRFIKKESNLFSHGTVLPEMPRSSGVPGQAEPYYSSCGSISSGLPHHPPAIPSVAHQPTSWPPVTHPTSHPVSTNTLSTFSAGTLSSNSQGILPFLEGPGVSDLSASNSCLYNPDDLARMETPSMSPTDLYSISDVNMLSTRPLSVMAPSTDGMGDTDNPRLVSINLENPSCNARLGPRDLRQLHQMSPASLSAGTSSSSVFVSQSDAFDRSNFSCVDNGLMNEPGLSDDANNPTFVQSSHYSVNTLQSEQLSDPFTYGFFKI
UniProt P06909, whole entry: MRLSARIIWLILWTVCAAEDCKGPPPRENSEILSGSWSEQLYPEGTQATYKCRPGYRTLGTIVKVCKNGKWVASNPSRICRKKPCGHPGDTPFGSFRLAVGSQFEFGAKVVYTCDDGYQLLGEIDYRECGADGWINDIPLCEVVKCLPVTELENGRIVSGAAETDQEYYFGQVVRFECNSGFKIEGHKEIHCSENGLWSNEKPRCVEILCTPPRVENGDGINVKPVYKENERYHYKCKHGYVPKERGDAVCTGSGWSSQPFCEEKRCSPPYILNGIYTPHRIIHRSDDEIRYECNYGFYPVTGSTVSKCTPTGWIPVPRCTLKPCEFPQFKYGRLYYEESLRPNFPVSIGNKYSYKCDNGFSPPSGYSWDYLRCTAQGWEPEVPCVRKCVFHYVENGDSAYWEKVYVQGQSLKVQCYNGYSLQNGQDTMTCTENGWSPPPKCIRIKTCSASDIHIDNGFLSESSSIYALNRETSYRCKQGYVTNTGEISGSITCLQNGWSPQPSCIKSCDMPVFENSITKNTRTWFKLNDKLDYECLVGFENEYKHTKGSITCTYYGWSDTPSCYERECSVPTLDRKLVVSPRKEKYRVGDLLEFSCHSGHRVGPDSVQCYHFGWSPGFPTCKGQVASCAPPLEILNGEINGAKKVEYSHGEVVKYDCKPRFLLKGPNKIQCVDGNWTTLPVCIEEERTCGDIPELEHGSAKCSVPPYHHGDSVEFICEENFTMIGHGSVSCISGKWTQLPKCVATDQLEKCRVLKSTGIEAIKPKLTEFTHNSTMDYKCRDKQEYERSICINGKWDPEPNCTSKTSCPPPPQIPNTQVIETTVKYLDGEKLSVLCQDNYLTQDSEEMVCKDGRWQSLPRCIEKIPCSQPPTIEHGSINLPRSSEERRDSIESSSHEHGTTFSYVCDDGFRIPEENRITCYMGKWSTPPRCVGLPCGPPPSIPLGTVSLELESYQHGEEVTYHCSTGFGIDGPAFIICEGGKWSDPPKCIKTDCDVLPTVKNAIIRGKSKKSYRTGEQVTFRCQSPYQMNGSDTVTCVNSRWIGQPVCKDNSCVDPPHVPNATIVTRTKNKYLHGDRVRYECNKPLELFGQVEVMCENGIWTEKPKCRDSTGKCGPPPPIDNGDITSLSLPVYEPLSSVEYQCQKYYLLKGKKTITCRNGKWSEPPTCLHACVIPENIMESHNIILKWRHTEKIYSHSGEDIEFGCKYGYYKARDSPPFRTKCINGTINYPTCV

Compound in this experiment: CN[C@@H]1C[C@H]2O[C@@](C)([C@@H]1OC)n1c3ccccc3c3c4c(c5c6ccccc6n2c5c31)C(=O)NC4 [staurosporine]
In words: log2 fold change of tryptic peptide abundance, ligand vs vehicle (limited proteolysis) (log2 ratio); higher = more trypsin-susceptible (destabilized). The note with it: ligand concentration: 20 uM; sample: mouse liver crude lysate; replicate design: treated separately.
“UniProt O89032 (peptide sequence: TSTLTRPK, peptide start residue: 513)”: the log2 fold change is -0.555.

On to “UniProt P06684 (peptide sequence: HSVPKKCCYDGAR, peptide start residue: 696)”, for which the log2 fold change was 0.415.

Turning to “UniProt P11352 (peptide sequence: NDIAWNFEK, peptide start residue: 156)”, the log2 fold change is 0.167. Take “UniProt P14211 (peptide sequence: DKQDEEQR, peptide start residue: 359)”: the log2 fold change was -0.567. For “UniProt P03893 (peptide sequence: MMTHQTK, peptide start residue: 313)”, the log2 fold change was 0.0455. For the target “UniProt P02468 (peptide sequence: HKQEADDIVR, peptide start residue: 1188)”, the log2 fold change was -0.251. On to “UniProt P06797 (peptide sequence: DRDNHCGLATAASYPVVN, peptide start residue: 317)”, for which the log2 fold change is -0.16.

For “UniProt P13541 (peptide sequence: ATLEQTERAR, peptide start residue: 1691)”, the log2 fold change was 0.108.

Consider “UniProt P05366 (peptide sequence: GPGGVWAAEK, peptide start residue: 66)”, for which the log2 fold change is 0.109. For “UniProt P14901 (peptide sequence: YLGDLSGGQVLKK, peptide start residue: 137)”, the log2 fold change is -0.739. As to “UniProt P14869 (peptide sequence: GHLENNPALEKLLPHIR, peptide start residue: 67)”, the log2 fold change came out at 0.28. Consider “UniProt P00493 (peptide sequence: VASLLVKR, peptide start residue: 160)”, for which the log2 fold change was -1.22. “UniProt P05201 (peptide sequence: VNLGVGAYR, peptide start residue: 34)”: the log2 fold change came to 0.671. With “UniProt O88947 (peptide sequence: MLEVPYVDRNTCK, peptide start residue: 376)”, the log2 fold change is -0.661. For the target “UniProt P08752 (peptide sequence: YDEAASYIQSK, peptide start residue: 297)”, the log2 fold change amounted to 0.388. Under “UniProt P03958 (peptide sequence: AQTPAFNKPK, peptide start residue: 2)” stands 0.16; under “UniProt P07091 (peptide sequence: ELPSFLGKR, peptide start residue: 41)”, 0.139; under “UniProt P15105 (peptide sequence: CIEEAIDKLSK, peptide start residue: 269)”, 0.104. Take “UniProt P14094 (peptide sequence: AKEEGSWK, peptide start residue: 6)”: the log2 fold change was 0.383. Under “UniProt P15379 (peptide sequence: LVINGGNGTVEDR, peptide start residue: 718)” stands -0.224; under “UniProt P0CL69 (peptide sequence: LNSVAAAAANGLGSEKDPSR, peptide start residue: 115)”, -0.27. Then “UniProt P09926 (peptide sequence: QGVEYVPACLLHK, peptide start residue: 119)”, with 0.26. On to “UniProt P09021 (peptide sequence: SYAAGASAAPAEPR, peptide start residue: 72)”, for which the log2 fold change came to 0.491. With “UniProt P0C6B7 (peptide sequence: RIFQEIAQELYHKR, peptide start residue: 198)”, the log2 fold change was -0.293. Take “UniProt P12265 (peptide sequence: LQGFEQQWYRQPLR, peptide start residue: 56)”: the log2 fold change worked out at 0.304. Under “UniProt P11589 (peptide sequence: LFLEQIHVLEK, peptide start residue: 58)” stands 0.0259; under “UniProt P08730 (peptide sequence: ITMQNLNDR, peptide start residue: 85)”, 0.0644.

On to “UniProt P01872 (peptide sequence: YLATSQVLLSPK, peptide start residue: 65)”, for which the log2 fold change is -0.108. Then “UniProt P15306 (peptide sequence: EVVLQHVR, peptide start residue: 562)”, with -0.00667.

On to “UniProt P03975 (peptide sequence: QCADSFIPR, peptide start residue: 200)”, for which the log2 fold change was 0.375. Then “UniProt P06795 (peptide sequence: STVVQLLER, peptide start residue: 1073)”, with -0.969; and “UniProt P13808 (peptide sequence: LLPPGAGLEPK, peptide start residue: 639)”, with -0.248; and “UniProt P08030 (peptide sequence: DALEPGQR, peptide start residue: 115)”, with 0.0899. As to “UniProt P10400 (peptide sequence: VGDTVWVR, peptide start residue: 40)”, the log2 fold change was 0.626. Regarding “UniProt P01027 (peptide sequence: TVAIHTLDPEK, peptide start residue: 941)”, the log2 fold change worked out at 0.177.

For the target “UniProt P11276 (peptide sequence: GVTYNIIVEALQNQRR, peptide start residue: 2255)”, the log2 fold change came out at 0.227. Then “UniProt P15307 (peptide sequence: LLQDCGHFTEKPR, peptide start residue: 303)”, with -0.119. In the case of “UniProt P06801 (peptide sequence: NLEAIVQK, peptide start residue: 363)”, the log2 fold change was -0.228. Under “UniProt P06909 (peptide sequence: ITCYMGK, peptide start residue: 918)” stands -0.274.
